EP4688000A1 (dated 2026)
No constants are given. Whether binding was seen depends on the method and setting. Some results given as binding are weak or reduced against the parent protein; the word gives no strength.

Chains of the proteins cited; added tags and fusions are not shown. Lines headed by an entry give the natural chain unless they say otherwise; changes in a name come on top.
UniProt P16144: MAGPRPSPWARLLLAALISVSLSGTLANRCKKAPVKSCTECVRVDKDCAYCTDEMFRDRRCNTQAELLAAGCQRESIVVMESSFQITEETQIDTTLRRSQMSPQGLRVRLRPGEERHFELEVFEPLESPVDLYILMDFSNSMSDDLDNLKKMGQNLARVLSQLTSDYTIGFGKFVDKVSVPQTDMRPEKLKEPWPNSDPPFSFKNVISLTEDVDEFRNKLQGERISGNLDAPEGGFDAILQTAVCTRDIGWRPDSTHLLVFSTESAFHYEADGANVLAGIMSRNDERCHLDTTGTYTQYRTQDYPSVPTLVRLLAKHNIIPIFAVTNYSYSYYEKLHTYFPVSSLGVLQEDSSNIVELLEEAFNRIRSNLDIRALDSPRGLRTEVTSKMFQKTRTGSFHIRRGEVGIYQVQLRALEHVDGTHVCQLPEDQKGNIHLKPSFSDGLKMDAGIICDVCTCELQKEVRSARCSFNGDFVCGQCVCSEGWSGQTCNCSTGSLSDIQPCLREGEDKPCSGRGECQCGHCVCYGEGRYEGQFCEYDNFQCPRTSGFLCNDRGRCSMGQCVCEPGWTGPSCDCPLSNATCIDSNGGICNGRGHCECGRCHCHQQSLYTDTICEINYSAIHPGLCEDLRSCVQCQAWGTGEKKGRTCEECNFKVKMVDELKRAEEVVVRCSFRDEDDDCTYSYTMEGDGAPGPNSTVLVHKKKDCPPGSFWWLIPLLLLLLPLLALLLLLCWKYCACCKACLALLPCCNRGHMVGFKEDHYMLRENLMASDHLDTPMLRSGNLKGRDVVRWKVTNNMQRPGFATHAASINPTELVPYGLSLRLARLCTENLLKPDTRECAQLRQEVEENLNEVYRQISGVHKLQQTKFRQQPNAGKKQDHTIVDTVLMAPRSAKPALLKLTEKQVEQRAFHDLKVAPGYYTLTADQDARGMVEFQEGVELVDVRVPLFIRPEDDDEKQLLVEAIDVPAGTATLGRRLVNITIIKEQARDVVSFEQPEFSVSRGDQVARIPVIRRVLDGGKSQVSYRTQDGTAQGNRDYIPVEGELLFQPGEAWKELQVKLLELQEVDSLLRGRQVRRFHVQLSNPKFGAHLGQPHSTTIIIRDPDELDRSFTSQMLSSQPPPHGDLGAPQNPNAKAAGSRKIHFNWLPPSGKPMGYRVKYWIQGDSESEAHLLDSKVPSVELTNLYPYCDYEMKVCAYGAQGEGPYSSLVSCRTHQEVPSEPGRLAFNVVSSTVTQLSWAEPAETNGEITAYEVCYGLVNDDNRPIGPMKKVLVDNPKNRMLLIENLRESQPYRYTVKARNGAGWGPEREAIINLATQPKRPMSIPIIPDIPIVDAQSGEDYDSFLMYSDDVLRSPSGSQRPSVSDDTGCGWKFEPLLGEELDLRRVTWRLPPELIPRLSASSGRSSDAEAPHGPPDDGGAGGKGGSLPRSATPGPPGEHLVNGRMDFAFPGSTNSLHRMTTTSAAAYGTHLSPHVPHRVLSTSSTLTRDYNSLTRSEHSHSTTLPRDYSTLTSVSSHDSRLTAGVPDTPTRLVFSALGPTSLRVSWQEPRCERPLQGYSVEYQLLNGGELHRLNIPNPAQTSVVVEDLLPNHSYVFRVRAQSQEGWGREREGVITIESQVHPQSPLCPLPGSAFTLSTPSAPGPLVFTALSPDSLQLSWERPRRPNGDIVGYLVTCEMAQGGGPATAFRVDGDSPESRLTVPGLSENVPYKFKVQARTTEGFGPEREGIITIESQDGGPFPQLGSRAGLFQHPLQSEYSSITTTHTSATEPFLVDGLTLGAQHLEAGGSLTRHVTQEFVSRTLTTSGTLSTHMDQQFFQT
UniProt P23229: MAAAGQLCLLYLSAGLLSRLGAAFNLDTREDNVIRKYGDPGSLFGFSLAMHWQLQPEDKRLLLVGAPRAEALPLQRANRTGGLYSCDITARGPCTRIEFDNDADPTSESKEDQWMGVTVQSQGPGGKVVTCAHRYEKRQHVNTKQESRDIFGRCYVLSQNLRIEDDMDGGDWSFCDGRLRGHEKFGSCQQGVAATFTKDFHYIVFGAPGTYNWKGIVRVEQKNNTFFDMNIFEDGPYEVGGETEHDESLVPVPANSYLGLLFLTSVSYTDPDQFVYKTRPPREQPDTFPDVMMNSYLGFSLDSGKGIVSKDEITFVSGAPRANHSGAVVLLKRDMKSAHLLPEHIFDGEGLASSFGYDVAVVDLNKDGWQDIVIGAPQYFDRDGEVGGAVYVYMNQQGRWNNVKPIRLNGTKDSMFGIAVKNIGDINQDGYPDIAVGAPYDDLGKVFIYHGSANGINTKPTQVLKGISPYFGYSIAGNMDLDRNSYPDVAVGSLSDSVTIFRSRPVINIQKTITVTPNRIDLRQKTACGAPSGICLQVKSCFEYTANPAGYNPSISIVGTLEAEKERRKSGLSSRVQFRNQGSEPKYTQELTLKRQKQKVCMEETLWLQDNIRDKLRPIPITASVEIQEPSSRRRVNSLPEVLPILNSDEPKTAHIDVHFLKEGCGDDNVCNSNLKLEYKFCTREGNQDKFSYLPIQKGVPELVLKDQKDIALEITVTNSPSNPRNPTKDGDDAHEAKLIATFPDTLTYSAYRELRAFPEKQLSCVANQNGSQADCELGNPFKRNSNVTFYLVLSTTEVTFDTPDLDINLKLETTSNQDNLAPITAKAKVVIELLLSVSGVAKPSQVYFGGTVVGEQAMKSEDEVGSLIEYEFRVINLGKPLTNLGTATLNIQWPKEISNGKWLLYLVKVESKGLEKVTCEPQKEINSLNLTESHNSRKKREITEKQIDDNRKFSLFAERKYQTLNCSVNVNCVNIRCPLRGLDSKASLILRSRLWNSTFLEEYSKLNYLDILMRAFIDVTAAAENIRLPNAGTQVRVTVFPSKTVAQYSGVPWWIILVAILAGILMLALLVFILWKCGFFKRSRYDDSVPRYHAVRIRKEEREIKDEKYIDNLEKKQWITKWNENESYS

How the values were obtained:
[1] = target: T1, human ITGB4 (integrin α6β4) on cells: HCT116, H292, SW620 and other tumor cells, CHO-S-human ITGA6B4-#5 (human) (UniProt P16144+P23229); experiment: flow cytometry on cells (Fig. 4)
[2] = target: recombinant human integrin alpha 6 beta 4 protein (ITGα6β4, Sino #CT069-H2508H) (human) (UniProt P23229+P16144); experiment: Octet BLI (antibody on AHC sensor) and ELISA on coated recombinant human ITGα6β4
[3] = target: T1, human ITGB4 (integrin α6β4) on cells: HCT116, H292, SW620 and other tumor cells, CHO-S-human ITGA6B4-#5 (human); experiment: flow cytometry on HCT116, H292 and CHO-S-human ITGA6B4-#5 cells

Measured: binding

B1: anti-ITGB4 antibody 008 (parental clone) (antibody, V domains shown)
VH: QVQLKQSGPSLVQPSQSLSITCTVSGFSLTSYGVHWFRQSPGKGLEWLGVIWRGGNTDYNAAFMSRLSITKDNSKSQVFFKMNSLQPDDTAIYYCVKNYRFGGSAYWGQGTLVTVSA
VL: DIQMTQTTSSLSASLGDRVTISCRASQDISNHLNWYQQKPDGTVKLLIYYTSTLHSGVPSRFSGSGSGTDYSLTISNLEPEDIATYYCQQDLNLPWTFGGGTKLEIK
notes: In the assays it was captured on anti-human IgG Fc sensors and detected with anti-human IgG, so the tested form carries a human Fc; also called 008 clone
binds: all assays above
